Laboratory results from article doi:10.1101/2020.05.24.113654 (bioRxiv, 2020).
Results are given in words; binding and its absence hold for the method and conditions named. Some results given as binding are weak or reduced against the parent protein; the word gives no strength.

Biological target: Cre^Cat (interdomain linker and C-terminal catalytic domain of Cre recombinase, residues 127-343) (UniProt P06956)
Assay: intermolecular PRE-NMR

- binding: binds weakly
B1: MTSL tagged-Cre^Cat C155A/C240A/D343C (domain or fragment, UniProt P06956 127-343, looked up)
chain: AGERAKQALAFERTDFDQVRSLMENSDRAQDIRNLAFLGIAYNTLLRIAEIARIRVKDISRTDGGRMLIHIGRTKTLVSTAGVEKALSLGVTKLVERWISVSGVADDPNNYLFARVRKNGVAAPSATSQLSTRALEGIFEATHRLIYGAKDDSGQRYLAWSGHSARVGAARDMARAGVSIPEIMQAGGWTNVNIVMNYIRNLDSETGAMVRLLEDGC
modifications: MTSL paramagnetic spin probe on C-terminal residue C343
